# Earlier results as cited in patent publication US20150335610A1, “PDK4 INHIBITOR AND USE THEREOF” (priority 2012, published 2015).
# System: PDK
# Conditions: background statement; cited from earlier work
smiles,measurement,value
CN[C@@H]1C[C@H]2O[C@@](C)([C@@H]1OC)n1c3ccccc3c3c4c(c5c6ccccc6n2c5c31)C(=O)NC4 [staurosporine],inhibition of PDK,not inhibited
